In PubChem BioAssay AID1487 (National Center for Advancing Translational Sciences (NCATS), 2009) one finds AC50 data, which are given here for 30 molecules.

The test can be described thus: qHTS Assay for Modulators of Lamin A Splicing. The following applies: HeLa LMNA splicing GFP/RFP minigene ratio, 48 h. The method, boiled down: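 Read-out is the ratio of GFP to DsRed2 object intensity, acquired by 488 nm laser-scanning cytometry on HeLa lamin A-EGFP minigene reporter cells. Compound incubation 48 hrs at 37 °C in Opti-MEM with 2% FBS; DMSO 0.5% final.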
(In qHTS, concentration-response curves come from the screen itself.)

Where [1] appears, read: measured here: RFP viability control channel.
Where [2] appears, read: measured here: GFP splicing reporter channel.

Several values for one entry are separate records, joined by “and”; a condition that tells them apart may be missing. Equal values may be shown once. Some of the results follow. Shown are side measurements of this screen, not its main read-out; they come without a call. Compounds called inactive in the main read-out are mostly missing here. Words in brackets tell the shape of the fitted curve; partial curves, single points and poor fits give uncertain potencies.

One may read the AC50 as the concentration at which the activity in the assay is half-maximal. Consider `CSC1=NP(=S)(SC)N2CCCC2=C1C#N` (centres undefined), for which the half-maximal activity concentration (AC50) under setting [1] was 35.5 µM [rising, single point].

Turning to `CN1C(=O)C(O)N=C(c2ccccc2)c2cc(Cl)ccc21` (centres undefined), the AC50 is 0.0794 µM [falling, full curve] under setting [2] and 0.282 µM [falling, partial curve] under setting [1].

Take `CCN1CCN(C(=O)COc2cc(=O)n(CC)c3ccccc23)CC1`: the concentration at half-maximal activity (AC50) under setting [1] is 11.2 µM [rising, partial curve, poor fit].

On to `CCC(C(N)=O)N1CCCC1=O` (centres undefined), for which the AC50 reads like this: under setting [2], 6.31 µM [falling, single point]; under setting [1], 35.5 µM [falling, single point].

Take `Cc1ccccc1NC1=NCC(C)S1` (centres undefined): the half-maximal activity concentration (AC50) under setting [1] is 15.8 µM [rising, single point].

On to `NC(C(=O)O)c1cc(=O)[nH]o1` (centres undefined), for which the half-maximal activity concentration (AC50) under setting [1] was 6.31 µM [falling, partial curve, poor fit].

For `CCCn1c(C(=O)c2ccc(OC)cc2)nc2ccccc21`, the AC50 reads like this: under setting [2], 0.398 µM [falling, full curve, poor fit]; under setting [1], 0.282 µM [falling, full curve, poor fit].

With `O=C(/C=C/c1ccccc1)C1C(=O)c2ccccc2C1=O`, the concentration at half-maximal activity (AC50) under setting [1] is 4.47 µM [rising, partial curve, poor fit].

Regarding `O=C(c1cccc(Cl)c1)C1CCCN(Cc2ccon2)C1` (centres undefined), the AC50 runs as follows: under setting [2], 6.31 µM [falling, partial curve, poor fit]; under setting [1], 3.55 µM [falling, full curve].

In the case of `CC(=O)NCCc1c[nH]c2ccccc12`, the AC50 under setting [1] was 5.62 µM [falling, single point].

`C[C@@H]1O[C@@H](O[C@H]2C[C@@H](O)[C@@]3(CO)[C@H]4[C@H](O)C[C@]5(C)[C@@H](C6=CC(=O)OC6)CC[C@]5(O)[C@H]4CC[C@@]3(O)C2)[C@@H](O)[C@H](O)[C@H]1O`: the AC50 under setting [2] is 0.398 µM [falling, full curve] and the AC50 under setting [1] was 5.62 µM [rising, partial curve, poor fit].

Regarding `CCCCCCCCCCCC[N+](C)(C)CCOc1ccccc1`, the half-maximal activity concentration (AC50) was 31.6 µM [rising, single point] under setting [2] and 35.5 µM [rising, single point] under setting [1].

For the molecule `CCCCC/C=C\C/C=C\C/C=C\C/C=C\CCCC(=O)O`, the AC50 by setting is: under setting [2], 12.6 µM [falling, partial curve]; under setting [1], 15.8 µM [falling, partial curve].

For `O=C(Nc1nc2c(s1)CCCCCC2)Nc1ccc(F)cc1F`, the AC50 is, setting by setting: under setting [2], 0.02 µM [falling, full curve, poor fit]; under setting [1], 25.1 µM [falling, partial curve, poor fit].

As to `CCC(=NCCC(c1ccccc1)c1ccccc1)c1c(O)[nH]c(=O)[nH]c1=O`, under setting [1], the AC50 is 20 µM [rising, single point].

Regarding `COc1ccc(/C=C/c2cc(O)cc(O)c2)cc1`, the half-maximal activity concentration (AC50) is 12.6 µM [falling, partial curve] under setting [2] and 11.2 µM [falling, partial curve] under setting [1].

Regarding `CC(C)C[C@H]1C(=O)N2CCC[C@H]2[C@]2(O)O[C@](NC(=O)[C@@H]3C=C4c5cccc6[nH]c(Br)c(c56)CC4N(C)C3)(C(C)C)C(=O)N12` (some centres undefined), the AC50 reads like this: under setting [2], 35.5 µM [rising, single point]; under setting [1], 0.794 µM [falling, full curve, poor fit].

As for `CC(=O)Nc1cc([As](=O)(O)O)ccc1O`, the concentration at half-maximal activity (AC50) under setting [1] is 5.62 µM [falling, single point].

With `C=CCOC(Cn1ccnc1)c1ccc(Cl)cc1Cl` (centres undefined), the half-maximal activity concentration (AC50) runs as follows: under setting [2], 12.6 µM [rising, single point]; under setting [1], 12.6 µM [rising, partial curve, poor fit].

For `Brc1ccc2c(c1)C(OC1CN3CCC1CC3)c1ccccc1CS2` (centres undefined), the AC50 is 35.5 µM [rising, single point] under setting [2] and 31.6 µM [rising, single point] under setting [1].

Regarding `Cc1cc2c(C(C)C)c(O)c(O)c(C=O)c2c(O)c1-c1c(C)cc2c(C(C)C)c(O)c(O)c(C=O)c2c1O`, the half-maximal activity concentration (AC50) was 12.6 µM [falling, single point] and 14.1 µM [falling, partial curve] under setting [2]; 2.24 µM [rising, single point] and 7.94 µM [falling, partial curve] under setting [1].

On to `CCC(C)N1C(=O)/C(=C\c2cc3c4c(c2)CCCN4CCC3)C(=O)NC1=S` (centres undefined), for which the AC50 under setting [1] is 3.98 µM [falling, partial curve, poor fit].

As for `C[C@@H](N)[C@@H](O)c1ccc(O)c(O)c1`, the AC50 by setting is: under setting [2], 12.6 µM [rising, partial curve, poor fit]; under setting [1], 2.24 µM [rising, partial curve, poor fit].

Take `CCCN1CC[C@@H]2c3cc(O)ccc3CC[C@@H]21`: the half-maximal activity concentration (AC50) under setting [2] is 0.00708 µM [rising, full curve, poor fit] and the AC50 under setting [1] is 0.00891 µM [rising, full curve, poor fit].

On to `O=c1[nH]c2ccccc2n1C1CCN(CCCC(c2ccc(F)cc2)c2ccc(F)cc2)CC1`, for which the half-maximal activity concentration (AC50) under setting [2] was 2.51 µM [falling, partial curve, poor fit] and 3.16 µM [falling, partial curve, poor fit] and 15.8 µM [falling, partial curve].

`Cc1ccc(-c2nn(C)c(=O)c3ccccc23)cc1CNC(=O)/C=C/c1ccccc1`: the concentration at half-maximal activity (AC50) is, setting by setting: under setting [2], 56.2 µM [falling, partial curve, poor fit]; under setting [1], 39.8 µM [falling, partial curve, poor fit].

In the case of `O=C1C2CCN(CC2)C1Cc1ccc(OCc2ccccc2)cc1` (centres undefined), the AC50 reads like this: under setting [2], 0.316 µM [falling, partial curve, poor fit]; under setting [1], 14.1 µM [falling, partial curve, poor fit].

For `CC(=O)[O][Hg][c]1ccccc1`, the AC50 under setting [2] was 25.1 µM [falling, partial curve, poor fit] and the AC50 under setting [1] was 22.4 µM [falling, partial curve, poor fit].

In the case of `O=C(Cn1c(=O)oc2cc(S(=O)(=O)N3CCCC3)ccc21)Nc1cccc(C(F)(F)F)c1`, the AC50 under setting [2] is 2 µM [rising, full curve] and the AC50 under setting [1] was 4.47 µM [rising, full curve].

As to `O=C(c1ccc(N2CCCCC2)c([N+](=O)[O-])c1)N1CCC2(CC1)OCCO2`, under setting [2], the half-maximal activity concentration (AC50) was 0.708 µM [falling, partial curve, poor fit].
